Assay results taken from patent US20030219858A1.
These are yes or no findings as the source states them, for the method shown. In cells and extracts the contact can be indirect. Some entries that bind do so weakly or less than the wild type. Sequences can lack the tags named with a protein.

Amino acid sequences for entries named in this document (tags omitted). A change or cut given only in a name is not applied to a line headed by its entry.
UniProt Q9UHC3: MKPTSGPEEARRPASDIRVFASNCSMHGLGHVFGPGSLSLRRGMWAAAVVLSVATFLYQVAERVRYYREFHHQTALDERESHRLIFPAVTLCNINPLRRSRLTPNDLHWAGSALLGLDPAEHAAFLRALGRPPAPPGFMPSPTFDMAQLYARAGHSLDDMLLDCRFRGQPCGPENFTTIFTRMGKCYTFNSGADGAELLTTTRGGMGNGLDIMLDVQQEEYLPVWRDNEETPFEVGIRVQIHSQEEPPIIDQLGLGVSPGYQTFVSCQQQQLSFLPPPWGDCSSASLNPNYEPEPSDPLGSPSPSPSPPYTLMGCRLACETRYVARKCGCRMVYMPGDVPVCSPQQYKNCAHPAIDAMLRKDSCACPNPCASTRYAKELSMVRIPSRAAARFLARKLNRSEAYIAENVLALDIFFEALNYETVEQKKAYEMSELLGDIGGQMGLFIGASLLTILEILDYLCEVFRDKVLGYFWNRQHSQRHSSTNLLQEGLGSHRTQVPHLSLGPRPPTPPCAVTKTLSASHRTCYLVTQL
UniProt Q16515: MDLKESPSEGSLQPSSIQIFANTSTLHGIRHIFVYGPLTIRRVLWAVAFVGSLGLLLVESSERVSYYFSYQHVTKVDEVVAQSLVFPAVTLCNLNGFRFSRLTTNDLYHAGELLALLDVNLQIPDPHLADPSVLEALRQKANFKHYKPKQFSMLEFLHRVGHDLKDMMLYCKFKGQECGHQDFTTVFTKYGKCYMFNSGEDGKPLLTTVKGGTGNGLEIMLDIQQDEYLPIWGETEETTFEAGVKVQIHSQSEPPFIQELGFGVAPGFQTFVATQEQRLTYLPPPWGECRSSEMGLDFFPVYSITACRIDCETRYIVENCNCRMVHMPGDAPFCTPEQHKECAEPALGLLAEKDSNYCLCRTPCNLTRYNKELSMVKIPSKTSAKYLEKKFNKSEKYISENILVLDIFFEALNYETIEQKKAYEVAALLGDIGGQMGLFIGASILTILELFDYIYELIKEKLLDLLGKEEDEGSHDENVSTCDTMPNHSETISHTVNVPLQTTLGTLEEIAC

Legend:
[1] = target: T1, ASIC3-C_FLAG (human ASIC3 with C-terminal FLAG tag) (human) (UniProt Q9UHC3); experiment: co-immunoprecipitation on antiFLAG M2 immunoaffinity resin from Triton X-100 lysates of co-expressing oocytes or HEK 293 cells; Western blot with anti-GFP or anti-His6
T1 sequence: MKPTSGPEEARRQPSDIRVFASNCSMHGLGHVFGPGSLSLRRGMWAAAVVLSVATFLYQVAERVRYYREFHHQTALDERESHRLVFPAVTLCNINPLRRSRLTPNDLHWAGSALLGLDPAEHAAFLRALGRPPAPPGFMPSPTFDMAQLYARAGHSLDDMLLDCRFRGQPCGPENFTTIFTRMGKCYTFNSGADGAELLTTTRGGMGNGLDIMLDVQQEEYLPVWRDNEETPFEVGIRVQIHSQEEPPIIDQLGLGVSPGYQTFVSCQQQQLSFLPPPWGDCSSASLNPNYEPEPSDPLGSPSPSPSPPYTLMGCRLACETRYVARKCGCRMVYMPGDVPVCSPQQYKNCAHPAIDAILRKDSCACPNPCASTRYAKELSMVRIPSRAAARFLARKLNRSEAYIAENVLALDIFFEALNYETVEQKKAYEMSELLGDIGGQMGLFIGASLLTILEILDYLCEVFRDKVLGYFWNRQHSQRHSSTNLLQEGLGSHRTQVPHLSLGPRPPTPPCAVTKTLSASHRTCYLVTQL

[2] = target: T2, ASIC3-N_His6 (human ASIC3 with N-terminal His6 tag) (human) (UniProt Q9UHC3); experiment: co-purification and Western blot, subunits coexpressed in Xenopus oocytes or HEK293 cells
T2 sequence: T1 sequence

[3] = target: T2, ASIC3-N_His6 (human ASIC3 with N-terminal His6 tag) (human); experiment: co-purification on Ni-NTA resin from Triton X-100 lysates of co-expressing oocytes or HEK 293 cells; Western blot with anti-GFP or anti-His6

Substance | binding [1] | binding [2] | binding [3]
ASIC2A-N_His6 (human ASIC2A with N-terminal His6 tag) (from UniProt Q16515 1-512) (receptor) | binds | – | –
ASIC2A-N_GFP (human ASIC2A with N-terminal GFP tag) (from UniProt Q16515 1-512) (receptor) | – | binds | binds
